Measured values as given in patent US12042511B1, “Inhalation delivery methods and compositions for vitamin B12” (priority 2017, dated 2024).
For at least one compound, name, drawing or mass did not settle the structure.

Assay: bioavailability/absorption of methylcobalamin in inhalable form compared with other forms of B12
Assay type: in vivo, human
Conditions: administered in inhalable form
Experimental: When a person is determined to have MTHFR or another condition that causes the person to have a reduced ability to process B-vitamin supplements and convert them into a usable form in the body, the person may be administered methylcobalamin by inhalation for proper B12 supplementation.

With C/C1=C2/[N-][C@H]([C@H](CC(N)=O)[C@@]2(C)CCC(=O)NC[C@@H](C)OP(=O)([O-])O[C@H]2[C@@H](O)[C@@H](n3cnc4cc(C)c(C)cc43)O[C@@H]2CO)[C@]2(C)N=C(/C(C)=C3N=C(/C=C4N=C1[C@@H](CCC(N)=O)C\4(C)C)[C@@H](CCC(N)=O)[C@]\3(C)CC(N)=O)[C@@H](CCC(N)=O)[C@]2(C)CC(N)=O.[CH3-].[Co+3] [methylcobalamin] the “bioavailability relative to other forms of B12” value was “more bioavailable than other forms of B12”.
